Data published in PMC5758779.
No constants are given. Whether binding was seen depends on the method and setting. Binding seen in cells or lysates may run through a third protein. Some entries that bind do so weakly or less than the wild type. For some assays here: Tags and fused reporters may be left off the sequences shown.

Chains of the proteins cited; added tags and fusions are not shown.
UniProt Q00444: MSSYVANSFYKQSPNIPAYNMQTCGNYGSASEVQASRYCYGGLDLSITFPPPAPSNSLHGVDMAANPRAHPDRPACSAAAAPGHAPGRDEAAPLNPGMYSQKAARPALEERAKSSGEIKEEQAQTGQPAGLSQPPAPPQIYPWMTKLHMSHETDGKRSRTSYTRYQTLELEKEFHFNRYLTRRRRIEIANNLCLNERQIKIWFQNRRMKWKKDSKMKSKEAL
UniProt O15379: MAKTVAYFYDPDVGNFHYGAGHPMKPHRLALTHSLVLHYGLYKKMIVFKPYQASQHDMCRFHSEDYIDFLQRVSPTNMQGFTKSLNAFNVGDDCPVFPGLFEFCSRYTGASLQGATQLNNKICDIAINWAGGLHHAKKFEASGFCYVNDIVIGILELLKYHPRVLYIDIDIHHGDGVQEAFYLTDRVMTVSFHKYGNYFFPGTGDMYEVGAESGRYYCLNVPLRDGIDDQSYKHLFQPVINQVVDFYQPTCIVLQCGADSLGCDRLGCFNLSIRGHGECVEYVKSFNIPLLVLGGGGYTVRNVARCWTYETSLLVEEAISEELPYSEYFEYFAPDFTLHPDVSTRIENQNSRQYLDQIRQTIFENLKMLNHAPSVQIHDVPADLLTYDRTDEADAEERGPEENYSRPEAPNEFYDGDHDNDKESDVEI
UniProt Q13547: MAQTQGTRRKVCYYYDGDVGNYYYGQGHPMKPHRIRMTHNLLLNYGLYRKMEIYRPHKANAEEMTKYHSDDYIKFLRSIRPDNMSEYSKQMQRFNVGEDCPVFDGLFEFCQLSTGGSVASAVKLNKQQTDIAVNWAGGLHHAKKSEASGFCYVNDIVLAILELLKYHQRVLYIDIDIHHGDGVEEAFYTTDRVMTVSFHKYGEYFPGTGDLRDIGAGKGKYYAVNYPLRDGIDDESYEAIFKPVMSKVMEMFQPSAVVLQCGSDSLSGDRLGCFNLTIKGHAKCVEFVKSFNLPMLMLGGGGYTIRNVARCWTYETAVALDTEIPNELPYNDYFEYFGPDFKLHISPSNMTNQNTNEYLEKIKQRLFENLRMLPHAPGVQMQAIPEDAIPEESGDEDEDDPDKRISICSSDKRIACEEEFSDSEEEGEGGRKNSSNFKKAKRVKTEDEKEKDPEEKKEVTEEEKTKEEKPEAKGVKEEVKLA

Assays:
V5-tagged PBX4 (human) = target: T1, V5-tagged PBX4 (human) (UniProt Q9BYU1); assay: co-IP; immunoprecipitation of V5-tagged PBX4, Flag-tagged HDAC1, HDAC2 or HDAC3 detected; transiently co-expressed in HeLa cells (Supplementary Fig. 8c, 8d)
T1 sequence: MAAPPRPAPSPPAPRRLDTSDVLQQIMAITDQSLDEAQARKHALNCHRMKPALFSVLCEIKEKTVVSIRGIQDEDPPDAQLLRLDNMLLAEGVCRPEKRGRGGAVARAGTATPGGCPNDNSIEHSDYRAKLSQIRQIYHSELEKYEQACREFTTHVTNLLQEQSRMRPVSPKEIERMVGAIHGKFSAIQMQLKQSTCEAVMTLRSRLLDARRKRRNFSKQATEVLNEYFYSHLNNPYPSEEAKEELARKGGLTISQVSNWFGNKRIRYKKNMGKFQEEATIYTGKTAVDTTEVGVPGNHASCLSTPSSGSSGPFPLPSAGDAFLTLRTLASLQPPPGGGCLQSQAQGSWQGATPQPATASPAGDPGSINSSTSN

V5-tagged HoxC5 (human) = V5-tagged HoxC5 (human) (UniProt Q00444); assay: co-IP; immunoprecipitation of V5-tagged HoxC5, Flag-tagged HDAC1, HDAC2 or HDAC3 detected; transiently co-expressed in HeLa cells (Supplementary Fig. 8b)
Flag-tagged Pbx2 (human) = target: T2, Flag-tagged Pbx2 (human) (UniProt P40425); assay: co-IP; immunoprecipitation of Flag-tagged Pbx1-4, V5-tagged HoxC5 detected (Supplementary Fig. 7d)
T2 sequence: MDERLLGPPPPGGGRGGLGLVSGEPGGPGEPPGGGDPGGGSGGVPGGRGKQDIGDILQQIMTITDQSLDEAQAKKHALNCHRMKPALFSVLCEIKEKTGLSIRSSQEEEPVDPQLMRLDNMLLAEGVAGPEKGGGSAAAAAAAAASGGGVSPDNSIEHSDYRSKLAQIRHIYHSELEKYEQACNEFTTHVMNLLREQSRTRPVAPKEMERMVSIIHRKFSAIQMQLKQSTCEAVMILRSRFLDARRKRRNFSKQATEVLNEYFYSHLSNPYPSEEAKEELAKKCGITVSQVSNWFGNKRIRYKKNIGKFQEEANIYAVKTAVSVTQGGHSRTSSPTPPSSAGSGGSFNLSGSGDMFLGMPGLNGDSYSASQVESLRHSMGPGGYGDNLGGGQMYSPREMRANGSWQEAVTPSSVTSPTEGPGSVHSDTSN

Flag-tagged Pbx1 (human) = target: T3, Flag-tagged Pbx1 (human) (UniProt P40424); assay: as above
T3 sequence: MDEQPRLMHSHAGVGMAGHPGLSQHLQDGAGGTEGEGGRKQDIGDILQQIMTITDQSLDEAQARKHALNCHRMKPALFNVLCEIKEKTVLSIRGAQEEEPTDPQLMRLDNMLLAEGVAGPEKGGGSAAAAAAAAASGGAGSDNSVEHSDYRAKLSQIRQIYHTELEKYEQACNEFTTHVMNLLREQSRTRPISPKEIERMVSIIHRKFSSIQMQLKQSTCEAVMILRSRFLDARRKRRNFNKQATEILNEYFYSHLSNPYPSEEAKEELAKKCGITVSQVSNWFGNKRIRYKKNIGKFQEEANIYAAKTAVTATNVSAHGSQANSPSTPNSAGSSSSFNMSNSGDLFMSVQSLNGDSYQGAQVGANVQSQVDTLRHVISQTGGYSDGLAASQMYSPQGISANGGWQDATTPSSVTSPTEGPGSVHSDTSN

Flag-tagged Pbx4 (human) = target: T4, Flag-tagged Pbx4 (human) (UniProt Q9BYU1); assay: as above
T4 sequence: T1 sequence

Flag-tagged Pbx3 (human) = target: T5, Flag-tagged Pbx3 (human) (UniProt P40426); assay: as above
T5 sequence: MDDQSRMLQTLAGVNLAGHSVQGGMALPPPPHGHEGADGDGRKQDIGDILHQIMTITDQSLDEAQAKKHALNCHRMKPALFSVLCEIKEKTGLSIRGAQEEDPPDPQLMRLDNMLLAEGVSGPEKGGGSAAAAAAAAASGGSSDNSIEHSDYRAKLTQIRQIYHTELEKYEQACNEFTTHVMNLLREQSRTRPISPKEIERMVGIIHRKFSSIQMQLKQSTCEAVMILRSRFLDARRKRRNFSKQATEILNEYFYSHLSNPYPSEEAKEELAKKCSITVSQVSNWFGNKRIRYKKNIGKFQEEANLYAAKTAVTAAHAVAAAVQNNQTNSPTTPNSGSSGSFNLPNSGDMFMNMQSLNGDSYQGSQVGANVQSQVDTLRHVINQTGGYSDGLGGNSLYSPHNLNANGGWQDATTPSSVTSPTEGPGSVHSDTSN

V5-tagged Meis2 (human) = target: T6, V5-tagged Meis2 (human) (UniProt O14770); assay: co-IP; immunoprecipitation of V5-tagged Meis1-3, Flag-tagged HoxC5 detected (Supplementary Fig. 7e)
T6 sequence: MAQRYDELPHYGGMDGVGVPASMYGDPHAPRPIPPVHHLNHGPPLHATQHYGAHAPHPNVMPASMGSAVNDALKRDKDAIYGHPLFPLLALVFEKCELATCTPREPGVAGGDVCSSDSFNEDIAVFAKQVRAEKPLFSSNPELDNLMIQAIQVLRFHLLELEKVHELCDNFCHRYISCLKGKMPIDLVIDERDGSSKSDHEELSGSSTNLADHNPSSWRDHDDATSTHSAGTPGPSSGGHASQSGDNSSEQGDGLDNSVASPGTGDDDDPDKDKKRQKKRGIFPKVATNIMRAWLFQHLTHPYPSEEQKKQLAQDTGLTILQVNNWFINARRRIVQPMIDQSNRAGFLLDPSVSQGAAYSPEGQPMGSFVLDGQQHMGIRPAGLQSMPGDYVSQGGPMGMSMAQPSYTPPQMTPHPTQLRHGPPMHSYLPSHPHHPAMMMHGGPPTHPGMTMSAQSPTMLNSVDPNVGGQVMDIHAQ

V5-tagged Meis1 (human) = target: T7, V5-tagged Meis1 (human) (UniProt O00470); assay: as above
T7 sequence: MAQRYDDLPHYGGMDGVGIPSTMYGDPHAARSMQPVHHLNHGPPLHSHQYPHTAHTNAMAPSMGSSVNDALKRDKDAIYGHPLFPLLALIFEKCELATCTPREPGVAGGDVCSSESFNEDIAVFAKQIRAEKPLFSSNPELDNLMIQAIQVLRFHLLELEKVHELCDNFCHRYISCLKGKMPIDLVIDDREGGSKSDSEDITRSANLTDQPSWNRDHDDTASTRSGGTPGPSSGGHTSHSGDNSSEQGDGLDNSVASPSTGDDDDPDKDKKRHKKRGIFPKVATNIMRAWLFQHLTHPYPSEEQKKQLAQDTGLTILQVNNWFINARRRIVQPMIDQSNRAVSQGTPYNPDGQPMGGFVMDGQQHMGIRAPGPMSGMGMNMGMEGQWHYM

V5-tagged Meis3 (human) = target: T8, V5-tagged Meis3 (human) (UniProt Q99687); assay: as above
T8 sequence: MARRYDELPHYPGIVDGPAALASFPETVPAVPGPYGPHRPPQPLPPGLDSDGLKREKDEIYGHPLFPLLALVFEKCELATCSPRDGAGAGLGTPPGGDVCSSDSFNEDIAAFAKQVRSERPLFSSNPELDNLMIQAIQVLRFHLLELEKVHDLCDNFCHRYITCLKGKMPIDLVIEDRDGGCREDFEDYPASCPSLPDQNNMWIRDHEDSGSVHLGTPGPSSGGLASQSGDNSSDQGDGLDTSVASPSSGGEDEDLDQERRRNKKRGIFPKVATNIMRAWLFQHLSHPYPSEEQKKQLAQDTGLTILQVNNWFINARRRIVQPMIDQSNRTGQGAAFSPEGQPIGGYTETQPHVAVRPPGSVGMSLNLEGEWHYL

[1] = target: Flag-tagged HoxC5 (human) (UniProt Q00444); assay: co-IP; immunoprecipitation of Flag-tagged HoxC5, V5-tagged Meis1-3 detected; HeLa cells
[2] = target: recombinant 6xHis-tagged HoxC5 (human) (UniProt Q00444); assay: pull-down; in vitro binding assay: purified recombinant 6xHis-tagged HoxC5 from bacteria pulls down in vitro translated, 35S-Methionine labeled Pbx proteins; only the target purified

## Flag-tagged HDAC3 (from UniProt O15379 1-428) (enzyme)
V5-tagged PBX4 (human)
  binding: binds
V5-tagged HoxC5 (human)
  binding: binds

## Flag-tagged HDAC1 (from UniProt Q13547 1-482) (enzyme)
V5-tagged PBX4 (human)
  binding: binds

## V5-tagged HoxC5 (from UniProt Q00444 1-222)
Flag-tagged Pbx2 (human)
  binding: no binding
Flag-tagged Pbx1 (human)
  binding: no binding
Flag-tagged Pbx4 (human)
  binding: binds
Flag-tagged Pbx3 (human)
  binding: no binding

## Flag-tagged HoxC5 (from UniProt Q00444 1-222)
V5-tagged Meis2 (human)
  binding: no binding
V5-tagged Meis1 (human)
  binding: no binding
V5-tagged Meis3 (human)
  binding: binds

B1: V5-tagged Meis3 (protein, UniProt Q99687 1-375)
chain: T8 sequence
[1]
  binding: binds

B2: V5-tagged Meis1 (protein, UniProt O00470 1-390)
chain: T7 sequence
[1]
  binding: no binding

B3: V5-tagged Meis2 (protein, UniProt O14770 1-477)
chain: T6 sequence
[1]
  binding: no binding

B4: in vitro translated and 35S-Methionine labeled Pbx3 (protein, UniProt P40426 1-434)
chain: T5 sequence
modifications: 35S-Methionine labeled
[2]
  binding: no binding
